PubChem BioAssay AID652272 – Drosophila RNAi Screening Center, 2013

Aim: 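Genome-wide knock-down search for components of Hedgehog signalling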 (primary screen)
System: Drosophila clone 8 (Cl8) cells
Reagents: long dsRNA against Drosophila genes
Read-out: 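Plate reader light from a firefly reporter under a ptc promoter fragment that responds to Hedgehog, with Renilla light as transfection reference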
Reading the numbers: firefly Hh reporter signal: higher = more ptc reporter light; Renilla reference signal: higher = more Renilla control light
Rule for the call: 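Hit when the z-score averaged over two replicates is under -2 or over +3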
Calls: active = hit: reporter lowered or raised; inactive = not a hit
The screen tested about 21,000 reagents; this is a random part of those with a known target gene and a result. Over the whole deposit, 503 (2.4%) are marked active. 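Raw plate light values, not normalised; calls rest on replicate z-scores that were not deposited; hits include reporter decreases as well as increases.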 Unmarked entries are inactive. The numbers tell different reagents against one gene apart. A plus sign joins genes that one reagent is predicted to hit. Not given: the amount of reagent, the time to read-out.

gene knocked down | reagent no. | firefly Hh reporter signal, replicate 1 | firefly Hh reporter signal, replicate 2 | firefly Hh reporter signal, replicate 3 | Renilla reference signal, replicate 1 | Renilla reference signal, replicate 2
PPO3 | 1 | 1.07e5 | 47250 | – | 4104 | 2029
Nup133 | 1 | 93753 | 88359 | – | 4935 | 4240
CG10182 | 1 | 4.77e5 | 1.07e5 | – | 26433 | 3430
Setx | 1 | 48464 | 37716 | – | 5590 | 1416
unc80 | 1 | 69651 | 85176 | – | 2272 | 2499
Gr28a | 1 | 1.18e5 | 61072 | – | 2950 | 5680
CG34427 | 1 | 36964 | 63728 | – | 4528 | 3990
CG14839 | 1 | 1.21e5 | 1.42e5 | – | 3920 | 4502
tej | 1 | 95845 | 49496 | – | 2352 | 3735
CG31111 | 1 | 3.09e5 (active) | 47128 | – | 23265 | 3018
CG8323 | 1 | 1.15e5 | 49104 | – | 2900 | 1693
CG12567 | 1 | 1.09e5 | 3.35e5 | – | 3520 | 15332
Thor | 1 | 1.18e5 | 89937 | – | 5664 | 3865
CG17994 | 1 | 1.14e5 | 65533 | – | 3205 | 6624
CG5966 | 1 | 98359 | 89708 | – | 2396 | 1824
CG14613 | 1 | 98231 | 98914 | – | 2205 | 2490
CG13033 | 1 | 1.09e5 | – | – | 197 | 3541
Pop2 | 1 | 75938 (active) | 38135 | – | 5324 | 3018
CG33784 | 1 | 2.39e5 | – | – | 3859 | –
dhd | 1 | 1.40e5 | 1.12e5 | – | 3195 | 2836
tst + CG10375 | 1 | 88768 | 50594 | – | 3829 | 1978
Lsm11 | 1 | 96058 | 49563 | – | 1792 | 2317
Jon99Ciii | 1 | 74924 | 60897 | – | 2860 | 3140
CG7322 | 1 | 68983 | 1.60e5 | – | 1290 | 7675
Cpr47Ee | 1 | 36016 (active) | 19584 | – | 1456 | 1824
CG32986 | 1 | 93921 | 53569 | – | 2763 | 4861
Lst8 | 1 | 73562 | 53234 | – | 2092 | 1170
CG10035 | 1 | 1.14e5 | 1.67e5 | – | 3240 | 4237
Taf2 | 1 | 1.11e5 | 58627 | – | 4550 | 1829
CG8289 | 1 | 1.05e5 | 1.02e5 | – | 2765 | 2245
vg | 1 | 1.45e5 | 6.36e5 | 76565 | 2209 | 36935
CG7763 | 1 | 69088 | 74227 | – | 1952 | 5136
CG42755 (retired record) | 1 | 1.25e5 | 2.34e5 | – | 3734 | 10166
CG42755 (retired record) | 2 | 1.44e5 | 2.17e5 | – | 4101 | 9300
Sirt2 | 1 | 4.98e5 | 79461 | – | 25520 | 2032
CG42366 | 1 | 60144 | 23290 | – | 1828 | 3101
vig | 1 | 1.52e5 | 6.28e5 | 82140 | 4121 | 35320
vig | 2 | 55208 | 32592 | – | 2221 | 1371
NfI | 1 | 1.51e5 | 3.32e5 | – | 5916 | 12272
CG3045 | 1 | 79699 | 83603 | – | 3248 | 3284
Dtg | 1 | 1.41e5 | 1.21e5 | – | 5968 | 4512
CG2017 | 1 | 1.03e5 | 68379 | – | 4907 | 2445
Spred | 1 | 93644 | 86931 | – | 4176 | 3276
r-l | 1 | 1.66e5 | 4.48e5 | 1.21e5 | 6468 | 2773
CG42304 + Snup | 1 | 2.42e5 | 1.57e5 | – | 8791 | 6512
CG42304 + Snup | 2 | 40133 | 27696 | – | 1793 | 2476
Sox21b | 1 | 1.05e5 | 2.55e5 | 68263 | 3936 | 17008
Sox21b | 2 | 26848 (active) | – | – | 3341 | 1157
CG15764 | 1 | 68108 | 1.71e5 | – | 2279 | 6461
CG14500 | 1 | 76059 | 59364 | – | 1653 | 4294
Stat92E | 1 | 99403 | 1.05e5 | – | 3954 | 3671
Rtf1 | 1 | 1.16e5 | 98903 | – | 3431 | 2642
eIF2Bepsilon | 1 | 98485 | 91236 | – | 2413 | 3624
NijA | 1 | 51522 | 40550 | 51382 | 3584 | 3890
mAChR-B | 1 | 68791 | 1.13e5 | – | 2864 | 3216
TwdlK | 1 | 80277 | 61707 | – | 1304 | 1227
CG34393 | 1 | 1.07e5 | 63213 | – | 2803 | 6455
CG34393 | 2 | 1.31e5 | 64882 | – | 3237 | 6615

Entries listed so far with an active call:
gene knocked down | reagent no. | firefly Hh reporter signal, replicate 1 | firefly Hh reporter signal, replicate 2 | firefly Hh reporter signal, replicate 3 | Renilla reference signal, replicate 1 | Renilla reference signal, replicate 2
CG31111 | 1 | 3.09e5 (active) | 47128 | – | 23265 | 3018
Pop2 | 1 | 75938 (active) | 38135 | – | 5324 | 3018
Cpr47Ee | 1 | 36016 (active) | 19584 | – | 1456 | 1824
Sox21b | 2 | 26848 (active) | – | – | 3341 | 1157
